Laboratory results taken from PMC12170584.
Results are given in words; binding and its absence hold for the method and conditions named. Binding seen in cells or lysates may run through a third protein. Here binding means that the protein was enriched with, or labelled near, the bait; the list need not be complete.

Molecular target: FAdV-4 hexon protein (flag-TST-hexon) (fowl adenovirus serotype 4 (FAdV-4))
Assay: affinity purification with mass spectrometry; tandem affinity purification (TST resin, biotin elution; then anti-FLAG magnetic beads, 3xFLAG peptide elution) of flag-TST-hexon from LMH cell lysate, 4°C; flag empty vector as control; eluate digested for MS

Binder	binding
chaperonin-containing TCP-1 subunit 7 (CCT7) (protein, UniProt Q5ZJK8 1-553) MMPTPVILLKEGTDTSQGIPQLVSNINACQVIAEAVRTTLGPRGMDKLIVDDRGKATISNDGATILKLLDVVHPAAKTLVDIAKSQDAEVGDGTTSVTLLAAEFLKQVKPYVEEGLHPQIIIRAFRTATQLAVNKIKDIAVSVKKEDKDEQRSLLEKCAATALSSKLISQSKEFFSKMVVDAVMMLDDLLQLKMIGIKKVQGGALEDSQLVAGVAFKKTFSYAGFEMQPKKYQSPKIALLNVELELKAEKDNAEVRVNTVEDYQAIVDAEWNILYDKLDKIHKSGAKVVLSKLPIGDVATQYFADRDMFCAGRVPEEDLKRTMMACGGSIQTSVNALSDDVLGRCELFEEIQIGGDRYNFFTGCPKAKTCTIILRGGAEQFMEETERSLHDAIMIVRRAIKNDSVVAGGGAIEMELSKYLRDYSRTIPGKQQLLIGAYAKALEIIPRQLCDNAGFDATNILNKLRAKHAQGGMWYGVDVNNEDIADNFEACVWEPAIVRINALTAASEAACLIVSVDETIKNPRSTVDAPPGGRGRGRGQTPQPLRPRSVALS	binds
Minichromosome Maintenance Complex Component 3 (protein, UniProt Q5ZMN2 1-812) MAAPAGGLGDAELREAQRDYLDFLDDEEDQGVYHGKVRDMISDNQYRLLVNINDLRRRNEKRANRLLSNAFEELIAFQRALKDFVASVDATYAKQYEDFYIGLEGSFGSKHVSPRTLTACFLSCIVCVEGIVTKCSLIRPKVVRSVHYCPATKKTIERRYTDLTSLDAFPSSTVYPTKDEENNPLETEYGLSVYKDHQTISIQEMPEKAPAGQLPRSVDVILDDDLVDKVKPGDRIQVVGTYRCLPGKKGGYTSGTFRTILIACHIKQMSKDARPLYSANDVAKIKRFSKSRSKDIFNQLARSLAPSIHGHEFIKKALLCMLLGGVEKVLENGSRIRGDINILLIGDPSVAKSQLLRYVLGTAPRAVGTTGRGSSGVGLTAAVTTDQETGERRLEAGAMVLADRGVVCIDEFDKMSDIDRTAIHEVMEQGRVTIAKAGIHARLNSRCSVLAAANPVYGRYDQYKTPMENIGLQDSLLSRFDLLFIMLDQMDSEQDREISDHVLRMHRYRNPNEQDGDAMPLGSAVEILATDDPDFAQEEEQELQVYEKHDDLLHGPNRRKEKIVSMEFMRKYIHVAKMIKPVLTQESADYIAEEYSSLRSQNQMNSDIARTSPVTARTLETLIRLSTAHAKARMSKTVDLQDAEAALELVQFAYFKKVLEKEKKRKKQVEDDSETEKEEEEEETQPEKEGRKQRRKKARTEGEEESYDPYDFSDAEQEMPEVQAHTPKTPESSATGEAKKPELADPRLKAFKAALLEVFKSSHAQSVGLKNVMESINRDNPEPFSLAGVKVALAHMQDDNQIMVSDDIIFLI	binds
Peroxiredoxin-1 (protein, UniProt P0CB50 1-199) MSSGKAFIGKPAPDFTATAVMPDGQFKDIKLSDYRGKYVVFFFYPLDFTFVCPTEIIAYSDRADEFKKINCEIIGASVDSHFCHLAWINTPKKQGGLGTMKIPLVSDTKRVIAKDYGVLKEDEGIAYRGLFIIDEKGILRQITINDLPVGRSVDETLRLVQAFQFTDKHGEVCPAGWKPGSDTIKPDVQKSKEYFSKQK	binds
